Reference: PubChem BioAssay AID1259254 (NCATS, 2017)

Assay: 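Gene knock-downs that lead to re-replication, shown by excess G2 DNA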 (primary screen)
Cells: human HCT116 colorectal cancer cells
Reagents: single siRNA against human genes
Time to read-out: 3 days
Measurement: 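Nuclei stained with Hoechst and imaged; cell-cycle phase assigned by DNA content; G2 share scaled per plate, non-targeting siRNA 0%, GMNN siRNA 100%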
Reading the numbers: G2 robust z-score: higher = more G2 cells, more excess DNA replication
Active means: 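An siRNA counts as active if its G2 robust z-score lies at least 5 MADs above the screen median; here such calls match roughly 38% of GMNN control or more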
Shown is one part, drawn at random, of about 59,000 reagents. Over the whole deposit, about 1,550 (2.6%) were called active. 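G2 share is only a proxy for re-replication; each gene was hit by three separate siRNAs, and active genes were retested.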 The numbers tell different reagents against one gene apart. Further read-outs or replicates are left out here. The record does not give: the amount of reagent.

no.	gene symbol	siRNA no.	G2 robust z-score	Call
1	SLF2	1	4.46	inactive
2	SLF2	2	0.94	inactive
3	SLF2	3	1.79	inactive
4	CMYA5	1	-0.964	inactive
5	CMYA5	2	0.706	inactive
6	CMYA5	3	3.83	inactive
7	TSPAN13	1	-0.377	inactive
8	TSPAN13	2	-0.368	inactive
9	TSPAN13	3	-0.106	inactive
10	MISP	1	0.859	inactive
11	MISP	2	7.1	active
12	MISP	3	-0.371	inactive
13	PMAIP1	1	-0.39	inactive
14	PMAIP1	2	2.99	inactive
15	PMAIP1	3	1.4	inactive
16	KIAA1755	1	-0.583	inactive
17	KIAA1755	2	-0.958	inactive
18	KIAA1755	3	-0.527	inactive
19	CCDC125	1	-0.299	inactive
20	CCDC125	2	3	inactive
21	CCDC125	3	-0.8	inactive
22	CCBE1	1	-0.0907	inactive
23	CCBE1	2	0.433	inactive
24	CCBE1	3	-0.991	inactive
25	TPH1	1	-0.664	inactive
26	TPH1	2	7.58	active
27	TPH1	3	0.422	inactive
28	ZNF277	1	1.5	inactive
29	ZNF277	2	0.216	inactive
30	ZNF277	3	0.656	inactive
31	SOX4	1	-1.16	inactive
32	SOX4	2	-0.313	inactive
33	SOX4	3	-0.224	inactive
34	CHMP4A	1	-0.658	inactive
35	CHMP4A	2	2.65	inactive
36	CHMP4A	3	-0.937	inactive
37	UNC13B	1	-1.57	inactive
38	UNC13B	2	0.149	inactive
39	UNC13B	3	-0.653	inactive
40	ZBTB14	1	0.322	inactive
41	ZBTB14	2	-0.208	inactive
42	ZBTB14	3	3.78	inactive
43	ZNF418	1	0.387	inactive
44	ZNF418	2	0.771	inactive
45	ZNF418	3	-0.081	inactive
46	ZNF418	4	-0.646	inactive
47	ZNF418	5	0.151	inactive
48	ZNF418	6	-0.675	inactive
49	ARR3	1	-0.689	inactive
50	ARR3	2	-0.687	inactive
51	ARR3	3	-0.717	inactive
52	LOC100533706	1	-0.764	inactive
53	LOC100533706	2	0.0335	inactive
54	LOC100533706	3	-0.656	inactive
55	KATNIP	1	1.67	inactive
56	KATNIP	2	0.217	inactive
57	KATNIP	3	-0.747	inactive
58	ISCA1P1	1	-0.0594	inactive
59	ISCA1P1	2	0.0781	inactive
60	ISCA1P1	3	-0.603	inactive
61	CALCB	1	-0.676	inactive
62	CALCB	2	3.35	inactive
63	CALCB	3	-1.12	inactive
64	YARS2	1	-0.53	inactive
65	YARS2	2	-1	inactive
66	YARS2	3	-0.66	inactive
67	RASGEF1B	1	-0.0831	inactive
68	RASGEF1B	2	0.0544	inactive
69	RASGEF1B	3	-0.119	inactive
70	FABP3	1	1.38	inactive
71	FABP3	2	1.71	inactive
72	FABP3	3	-0.347	inactive
73	MIPEPP3	1	-0.361	inactive
74	MIPEPP3	2	0.905	inactive
75	MIPEPP3	3	-0.295	inactive
76	RRAS	1	2.07	inactive
77	RRAS	2	3.3	inactive
78	RRAS	3	-0.234	inactive
79	ADA2	1	-0.864	inactive
80	ADA2	2	-0.849	inactive
81	ADA2	3	1.97	inactive
82	FAM120B	1	2.82	inactive
83	FAM120B	2	0.821	inactive
84	FAM120B	3	4.03	inactive
85	PIGP	1	0.241	inactive
86	PIGP	2	0.257	inactive
87	PIGP	3	0.342	inactive
